Data reported in patent US20110306060A1.
No constants are given. Whether binding was seen depends on the method and setting. Some entries that bind do so weakly or less than the wild type.

Sequences of proteins named here, by UniProt entry; tags and fusion partners are left off. Residues count along the entry.
UniProt Q8NBP7, residues 31-692: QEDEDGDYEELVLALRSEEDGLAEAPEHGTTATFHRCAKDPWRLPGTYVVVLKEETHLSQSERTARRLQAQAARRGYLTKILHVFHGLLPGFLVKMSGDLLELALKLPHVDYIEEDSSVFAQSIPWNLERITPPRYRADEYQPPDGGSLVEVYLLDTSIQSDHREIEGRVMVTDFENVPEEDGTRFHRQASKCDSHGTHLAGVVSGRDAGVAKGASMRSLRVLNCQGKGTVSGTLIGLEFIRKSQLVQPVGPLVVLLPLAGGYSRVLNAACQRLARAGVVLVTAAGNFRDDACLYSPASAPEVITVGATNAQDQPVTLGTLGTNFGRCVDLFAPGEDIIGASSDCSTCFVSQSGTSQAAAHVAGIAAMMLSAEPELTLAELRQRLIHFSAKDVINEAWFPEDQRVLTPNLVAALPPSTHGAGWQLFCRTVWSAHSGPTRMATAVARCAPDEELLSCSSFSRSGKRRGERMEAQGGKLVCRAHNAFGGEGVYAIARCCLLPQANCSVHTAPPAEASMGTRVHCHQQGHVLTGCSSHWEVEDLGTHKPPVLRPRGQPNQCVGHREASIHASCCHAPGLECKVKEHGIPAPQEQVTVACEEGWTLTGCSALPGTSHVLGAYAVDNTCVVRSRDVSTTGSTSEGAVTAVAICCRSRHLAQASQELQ

Biological target: human PCSK9 (purified human PCSK9 protein) (human) (UniProt Q8NBP7)
Experiment: DELFIA sandwich immunoassay; E07 coated as capture antibody

B1: PCSK9_5_CX3_E07 (E07 coating/capture antibody) (antibody, human IgG2, lambda, V domains shown)
VH: QVQLVESGGGLVQPGGSLRLSCAASGFTFSDHWMHWVRQAPGKGLEWVSYIDYYGSNTHYADSVKGRFTISRDNSKNTLYLQMNSLRAEDTAVYYCARMLYGWNYGVFDYWGQGTLVTVSS
VL: DIELTQPPSVSVAPGQTARISCSGDSLRDKYVHWYQQKPGQAPVVVIYYDTNRPSGIPERFSGSNSGNTATLTISGTQAEDEADYYCAAYTRSIYVFGGGTKLTVLG
- binding: binds
